The labels stand for the following.
B1: Ies1 (protein, UniProt P43579 1-692)
chain: MGKRVYDPIHDTFQLREDNSDETKADSPMQSVKSGSQEEASPSSIQSETETVTTKSIPVIHEIEIDDKNDDDSTQSEEENTNILLNFEPSTVPEATGASTATGPVTTNTVRRKPKESNASKYNRHLKKPDGEPFNRKDIQFSFMQELLMDKRQIFTNVLKPLYKNSIVPINIDGDKLSINVTDKEYDARTFVFNDKLTFAQLYVLTIATSIKCSKILRDKLLLDQQVAFSTCVLALLVNIGRLNTTINFYLEMTSQLRTFHSVPVLQLHANDPKLLQDTPRLKSILKNLPWGNEQLSLMETYKKVDQNDGEVDTVNKFNIINMLFSICDNSGLIDKRFLSKYVEVESKAQEQDMVDEQNEVKETEAENEKQESKAAYATTLFDILDYSKYEPKDRSNILIWLLYIHLETNLSQEEVEESVRFFNGLEDGAPAGKFILRCTERSYDTDPEDELEFGANQRIKRREFMSKMEEGRKRERTNVTEVKKPSIGGDKSEEDGEGEDDKSEETVEETRSLLTPTPILESSSPMTLNRKKVTPQLPKVTPAAPTETEEEITSAAIIDKNDLNLTPLKKYNSSATVNKVDKLISLDLNKHVSENGKTQEEFLADLKKSQVPNRLKRRDIGLIKIFNEFEDIPVASVLGIRGKKRKKFKDNLLGFETDFMKNLGASKKVLLNKIERAEIDDEEATAMFKLE
B2: Ies4 (protein, UniProt Q08561 1-116)
chain: MSQESSVLSESQEQLANNPKIEDTSPPSANSRDNSKPVLPWDYKNKAIEIKSFSGYKVNFTGWIRRDVREERQRGSEFTASDVKGSDDKATRKKEPADEDPEVKQLEKEGEDGLDS
B3: Ies2 (protein, UniProt P40154 1-320)
chain: MDSEASDIEAELSDSVSAGGEEYIDDDDYTEDIDDQIVTAKSSRRTARRSVPKGVRTSKRIRDKELSVEVDEDYDEEEDVLSPSKKRHLHTRSMDKRQVAATASEKSDIGDSKGNDGEIEDGILEEEESLEKELNRGGGKEVEKSEESYYAQNDVGQKGEEEQDGESGGYEDNEPSISKESDELVSVVNGNGNEEDDEVEATKENTTDSTRSTTTRSKMLLDLLEDGGSKKKLTDEEIQLRRAENARKRKNLSEKRLEEEKQDTINKLLKKRAGKSRSHLPNDDEKNDGSSSFVKPRRPYNSEGMTRILRRYEEDLFCTF
B4: Ies3 (protein, UniProt Q12345 1-250)
chain: MKFEDLLATNKQVQFAHAATQHYKSVKTPDFLEKDPHHKKFHNADGLNQQGSSTPSTATDANAASTASTHTNTTTFKRHIVAVDDISKMNYEMIKNSPGNVITNANQDEIDISTLKTRLYKDNLYAMNDNFLQAVNDQIVTLNAAEQDQETEDPDLSDDEKIDILTKIQENLLEEYQKLSQKERKWFILKELLLDANVELDLFSNRGRKASHPIAFGAVAIPTNVNANSLAFNRTKRRKINKNGLLENIL
B5: Nhp10 (protein, UniProt Q03435 1-203)
chain: MSVEEKKRRLEELKDQNVVLGLAIQRSRLSVKRLKLEYGVLLERLESRIELDPELNCEDPLPTLASFKQELLTKPFRKSKTKRHKVKERDPNMPKRPTNAYLLYCEMNKERIRQNGSLDVTRDLAEGWKNLNEQDRKPYYKLYSEDRERYQMEMEIYNKKISNIDADDDKEENEQKIKNNEEGSSTKVADSKGGEDGSLVSSN
B6: Arp5-His (protein, UniProt P53946 1-755)
chain: MSSRDASLTPLKAVVIDDPPLRQTPEPFDEQSAYNPQSPIAIDFGSSKLRAGFVNHATPTHIFPNALTKFRDRKLNKNFTFVGNDTLLDQAVRSQSRSPFDGPFVTNWNLTEEILDYTFHHLGVVPDNGIPNPILLTERLATVQSQRTNWYQILFETYNVPGVTFGIDSLFSFYNYNPSGNKTGLVISCGHEDTNVIPVVDGAGILTDAKRINWGGHQAVDYLNDLMALKYPYFPTKMSYLQYETMYKDYCYVSRNYDEDIEKILTLENLDTNDVVVEAPFTEVLQPQKTEEELRIQAEKRKETGKRLQEQARLKRMEKLVQKQEEFEYFSKVRDQLIDEPKKKVLSVLQNAGFDDERDFKKYLHSLEQSLKKAQMVEAEDDSHLDEMNEDKTAQKFDLLDIADEDLNEDQIKEKRKQRFLKASQDARQKAKEEKERVAKEEEEKKLKEQQWRETDLNGWIKDKRLKLNKLIKRRKEKLKLRDEMKDRKSQVSQNRMKNLASLAEDNVKQGAKRNRHQATIDNDPNDTFGANDEDWLIYTDITQNPEAFEEALEYEYKDIVELERLLLEHDPNFTEEDTLEAQYDWRNSILHLFLRGPRPHDSENIHEQHQMHLNVERIRVPEVIFQPTMGGQDQAGICELSETILLKKFGSQPGKLSQTSIDMVNNVLITGGNAKVPGLKERIVKEFTGFLPTGTNITVNMSSDPSLDAWKGMAALARNEEQYRKTVISKKEYEEYGPEYIKEHKLGNTKYFED
B7: Ies5 (protein, UniProt P40060 1-125)
chain: MPSKDPESVIDKEIRKISARNDELIKQDGTLKREYTTLLRKVSSVITVLNSIDDADTGSAETELPRLISQATVEKVPELKWYNDQISLITEKLEDDEDIEVPEELMDAYTLYKETPLLYNDTHTP
B8: Ies6 (protein, UniProt P32617 1-166)
chain: MSGSRGNSSNSSVSNNSNNNNNNDGGDERLLFLRSVGERNEIGFPSRFKSAHYKKPTRRHKSARQLISDENKRINALLTKANKAAESSTAARRLVPKATYFSVEAPPSIRPAKKYCDVTGLKGFYKSPTNNIRYHNAEIYQLIVKPMAPGVDQEYLKLRGANFVLK

Chains of the proteins cited; added tags and fusions are not shown.
UniProt P53115: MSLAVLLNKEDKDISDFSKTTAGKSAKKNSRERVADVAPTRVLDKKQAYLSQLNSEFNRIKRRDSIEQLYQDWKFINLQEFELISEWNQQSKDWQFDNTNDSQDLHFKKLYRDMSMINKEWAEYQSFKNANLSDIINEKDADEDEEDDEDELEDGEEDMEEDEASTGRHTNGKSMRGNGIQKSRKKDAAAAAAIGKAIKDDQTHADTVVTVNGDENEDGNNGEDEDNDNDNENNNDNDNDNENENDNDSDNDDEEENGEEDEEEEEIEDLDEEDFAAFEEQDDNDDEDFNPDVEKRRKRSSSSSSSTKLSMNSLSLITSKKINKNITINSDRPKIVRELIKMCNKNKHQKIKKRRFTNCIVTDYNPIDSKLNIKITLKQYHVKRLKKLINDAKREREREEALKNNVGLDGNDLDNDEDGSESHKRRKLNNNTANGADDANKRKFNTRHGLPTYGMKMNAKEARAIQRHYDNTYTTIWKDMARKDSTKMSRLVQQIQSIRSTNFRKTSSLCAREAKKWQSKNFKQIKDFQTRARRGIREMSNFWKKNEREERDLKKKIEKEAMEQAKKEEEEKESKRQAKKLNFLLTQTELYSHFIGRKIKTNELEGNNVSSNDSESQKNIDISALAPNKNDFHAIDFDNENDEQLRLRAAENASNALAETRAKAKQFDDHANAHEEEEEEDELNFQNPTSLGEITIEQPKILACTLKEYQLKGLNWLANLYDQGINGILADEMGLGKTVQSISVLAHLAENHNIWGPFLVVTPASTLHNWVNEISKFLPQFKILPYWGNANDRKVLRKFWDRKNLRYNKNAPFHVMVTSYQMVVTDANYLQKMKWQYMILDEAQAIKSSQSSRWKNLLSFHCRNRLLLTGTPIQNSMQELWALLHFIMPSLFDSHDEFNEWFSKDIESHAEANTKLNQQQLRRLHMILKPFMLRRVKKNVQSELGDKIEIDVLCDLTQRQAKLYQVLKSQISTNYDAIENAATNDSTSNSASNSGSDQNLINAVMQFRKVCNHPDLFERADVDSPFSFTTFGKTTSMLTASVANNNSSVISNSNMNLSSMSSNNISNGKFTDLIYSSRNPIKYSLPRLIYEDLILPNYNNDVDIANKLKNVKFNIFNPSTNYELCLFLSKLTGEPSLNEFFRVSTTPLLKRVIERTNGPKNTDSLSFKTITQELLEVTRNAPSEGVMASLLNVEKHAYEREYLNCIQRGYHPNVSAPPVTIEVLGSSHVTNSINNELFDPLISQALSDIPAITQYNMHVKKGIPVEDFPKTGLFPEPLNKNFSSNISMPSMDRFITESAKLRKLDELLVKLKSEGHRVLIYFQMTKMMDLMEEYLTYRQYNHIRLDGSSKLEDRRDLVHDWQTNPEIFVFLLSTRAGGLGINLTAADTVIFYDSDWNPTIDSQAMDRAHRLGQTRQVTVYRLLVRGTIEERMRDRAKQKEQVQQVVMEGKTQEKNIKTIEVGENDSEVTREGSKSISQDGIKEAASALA
UniProt P35189: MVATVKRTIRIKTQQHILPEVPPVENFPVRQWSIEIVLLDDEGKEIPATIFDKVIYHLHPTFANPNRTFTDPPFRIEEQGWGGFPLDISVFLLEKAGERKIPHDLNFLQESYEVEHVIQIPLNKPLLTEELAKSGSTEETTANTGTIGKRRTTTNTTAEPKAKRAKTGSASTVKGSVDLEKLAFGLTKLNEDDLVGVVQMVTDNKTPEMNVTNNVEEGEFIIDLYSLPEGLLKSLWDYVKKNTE

Results are given in words; binding and its absence hold for the method and conditions named. Some entries that bind do so weakly or less than the wild type. Sequences can lack the tags named with a protein.

The target in the test is Ino80 carrying a C-terminal 2xFlag-tag (S. cerevisiae) (UniProt P53115). The experiment in a line: co-purification (anti-Flag affinity, anion exchange, size exclusion); High Five cells co-infected with two baculoviruses; cleared lysate (500 mM NaCl) on anti-Flag M2 Affinity Gel by Ino80-2xFlag, washes with 500 and 200 mM KCl, elution with Flag peptide, MonoQ with KCl gradient 200-1000 mM and, if required, Superose 6. (In gel filtration, larger molecules generally elute earlier.)
As to Taf14 (from UniProt P35189 1-244), the binding entry is given as “binds”.

Turning to B1, the binding result is on record as “binds”.

On to B2, for which the binding result was “binds”. Consider B3, for which the binding result is recorded as “binds”. The entry for B4 is “binds”; for B5 it is “binds”; for B6 it is “binds”. In the case of B7, the binding entry is “binds”. The entry for B8 is “binds”.

The values are drawn from publication PMC8163841.
